Results: article PMC3276543, “Structural Basis of Transcriptional Gene Silencing Mediated by Arabidopsis MOM1” (PLoS Genetics, 2012)
No constants are given. Whether binding was seen depends on the method and setting. Some binding calls cover weakened binding; strength is not graded here. For some of these results: Tags and fused reporters may be left off the sequences shown. Each block holds one binder with its values, some of them ahead of it.

Experiments:
Test in all cases: two-hybrid; Matchmaker Gold Yeast Two-Hybrid System (Clontech); GAL4-AD and GAL4-BD fusions of the same fragment co-transformed in yeast; α-galactosidase staining
[1] = molecular target: CMM2 fragment (aa 1730 to 1815) fused to the GAL4 activation and DNA-binding domains (Arabidopsis thaliana) (UniProt Q9M658)
[2] = molecular target: CMM2-mut1 (L1761D and L1765D) (Arabidopsis thaliana) (UniProt Q9M658)
[3] = molecular target: CMM2-mut3 (N1799A, I1802E, and L1806P) (Arabidopsis thaliana) (UniProt Q9M658)
[4] = molecular target: CMM2-mut2 (F1736P, L1737E, and L1740A) (Arabidopsis thaliana) (UniProt Q9M658)

B1: CMM2 fragment (aa 1730 to 1815) fused to the GAL4 activation and DNA-binding domains (domain or fragment, UniProt Q9M658 1730-1815)
chain: PVFNDPFLHELEKLRRESENSKKTFEEKKSILKAELERKMAEVQAEFRRKFHEVEAEHNTRTTKIEKDKNLVIMNKLLANAFLSKC
- binding [1]: binds

B3: CMM2-mut3 (N1799A, I1802E, and L1806P) (domain or fragment, UniProt Q9M658 1730-1815)
chain: PVFNDPFLHELEKLRRESENSKKTFEEKKSILKAELERKMAEVQAEFRRKFHEVEAEHNTRTTKIEKDKALVEMNKPLANAFLSKC
- binding [3]: binds

Next, values leading:

- binding [2]: no binding
B2: CMM2-mut1 (L1761D and L1765D) (domain or fragment, UniProt Q9M658 1730-1815)
chain: PVFNDPFLHELEKLRRESENSKKTFEEKKSIDKAEDERKMAEVQAEFRRKFHEVEAEHNTRTTKIEKDKNLVIMNKLLANAFLSKC

- binding [4]: binds
B4: CMM2-mut2 (F1736P, L1737E, and L1740A) (domain or fragment, UniProt Q9M658 1730-1815)
chain: PVFNDPPEHEAEKLRRESENSKKTFEEKKSILKAELERKMAEVQAEFRRKFHEVEAEHNTRTTKIEKDKNLVIMNKLLANAFLSKC
